Results are given in words; binding and its absence hold for the method and conditions named. Binding seen in cells or lysates may run through a third protein. Some results given as binding are weak or reduced against the parent protein; the word gives no strength. Sequences can lack the tags named with a protein.
How the values were obtained:
[1] = target: T1, FLAG-tagged mouse TRAF2 (mouse) (UniProt P39429); experiment: GST pull-down from 293 cell lysate, anti-FLAG immunoblot (FIG. 2A)
T1 sequence (looked up): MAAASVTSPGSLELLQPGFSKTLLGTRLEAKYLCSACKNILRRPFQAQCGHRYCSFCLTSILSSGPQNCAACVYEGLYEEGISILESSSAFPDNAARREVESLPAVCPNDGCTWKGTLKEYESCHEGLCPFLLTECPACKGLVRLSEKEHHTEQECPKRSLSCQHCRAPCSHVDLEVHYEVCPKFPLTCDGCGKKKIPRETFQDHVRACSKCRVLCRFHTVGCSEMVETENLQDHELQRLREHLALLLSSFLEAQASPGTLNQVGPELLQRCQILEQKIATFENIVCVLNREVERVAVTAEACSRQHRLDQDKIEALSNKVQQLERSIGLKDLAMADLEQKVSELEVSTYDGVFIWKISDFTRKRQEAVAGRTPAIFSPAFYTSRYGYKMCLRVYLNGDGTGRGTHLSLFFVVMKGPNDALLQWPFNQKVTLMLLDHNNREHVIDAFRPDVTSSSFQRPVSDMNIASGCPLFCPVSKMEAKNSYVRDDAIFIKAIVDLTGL

[2] = target: T2, FLAG-tagged mouse TRAF3 (mouse) (UniProt Q60803); experiment: as above
T2 sequence (looked up): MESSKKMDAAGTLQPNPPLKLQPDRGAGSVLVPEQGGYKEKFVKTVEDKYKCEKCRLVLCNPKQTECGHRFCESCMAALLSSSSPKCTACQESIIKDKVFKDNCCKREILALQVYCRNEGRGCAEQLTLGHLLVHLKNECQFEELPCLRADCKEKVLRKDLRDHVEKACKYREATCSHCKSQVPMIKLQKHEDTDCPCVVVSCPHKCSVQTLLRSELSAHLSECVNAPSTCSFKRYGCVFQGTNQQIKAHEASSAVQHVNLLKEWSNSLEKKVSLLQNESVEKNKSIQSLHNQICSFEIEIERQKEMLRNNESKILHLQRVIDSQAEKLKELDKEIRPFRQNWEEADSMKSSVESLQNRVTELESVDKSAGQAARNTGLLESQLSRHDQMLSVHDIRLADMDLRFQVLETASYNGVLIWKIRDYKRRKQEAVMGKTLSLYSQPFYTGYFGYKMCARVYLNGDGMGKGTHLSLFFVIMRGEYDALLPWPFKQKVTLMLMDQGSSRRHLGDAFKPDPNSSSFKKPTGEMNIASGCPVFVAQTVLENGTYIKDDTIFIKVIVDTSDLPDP

GST-clone 10 (from UniProt Q61214 284-763)
binding [1]: binds
binding [2]: binds

— patent publication US20040170997A1
